No constants are given. Whether binding was seen depends on the method and setting. For some of these results: Binding seen in cells or lysates may run through a third protein. Some entries that bind do so weakly or less than the wild type.

Chains of the proteins cited; added tags and fusions are not shown.
UniProt P52294: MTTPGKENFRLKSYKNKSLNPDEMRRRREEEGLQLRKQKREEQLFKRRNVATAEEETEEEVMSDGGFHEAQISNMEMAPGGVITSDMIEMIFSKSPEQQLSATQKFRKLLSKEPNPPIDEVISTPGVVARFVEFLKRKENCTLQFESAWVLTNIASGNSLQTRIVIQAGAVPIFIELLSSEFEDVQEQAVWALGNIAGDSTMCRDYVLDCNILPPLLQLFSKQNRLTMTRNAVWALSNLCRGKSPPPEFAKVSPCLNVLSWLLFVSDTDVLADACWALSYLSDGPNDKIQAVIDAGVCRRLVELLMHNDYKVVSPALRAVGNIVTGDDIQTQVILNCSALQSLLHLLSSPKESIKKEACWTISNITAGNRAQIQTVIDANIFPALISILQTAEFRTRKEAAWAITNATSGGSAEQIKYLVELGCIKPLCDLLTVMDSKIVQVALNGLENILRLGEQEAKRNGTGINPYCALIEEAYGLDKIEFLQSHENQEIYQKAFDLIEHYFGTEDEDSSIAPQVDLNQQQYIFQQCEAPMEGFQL
UniProt P14618: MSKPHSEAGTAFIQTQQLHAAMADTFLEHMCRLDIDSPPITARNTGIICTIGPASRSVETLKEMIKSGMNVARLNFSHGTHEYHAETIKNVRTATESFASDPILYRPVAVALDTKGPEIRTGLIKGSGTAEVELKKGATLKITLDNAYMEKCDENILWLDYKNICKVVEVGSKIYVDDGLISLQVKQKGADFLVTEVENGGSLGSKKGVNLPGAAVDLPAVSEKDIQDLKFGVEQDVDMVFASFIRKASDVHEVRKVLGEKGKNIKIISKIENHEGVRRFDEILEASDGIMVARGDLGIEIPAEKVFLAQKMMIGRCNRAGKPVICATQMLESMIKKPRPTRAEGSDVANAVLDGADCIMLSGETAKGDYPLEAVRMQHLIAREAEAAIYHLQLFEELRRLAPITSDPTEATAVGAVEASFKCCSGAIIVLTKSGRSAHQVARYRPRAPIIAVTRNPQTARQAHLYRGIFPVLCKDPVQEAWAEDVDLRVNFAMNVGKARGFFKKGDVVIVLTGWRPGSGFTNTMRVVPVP

The results in this text go back to publication PMC9727912.

For experiment [1], the target named is Flag-importin α5 (UniProt P52294). Nature of the experiment: co-IP; two-step (sequential) immunoprecipitation from HepG2 cells co-transfected with Flag-importin α5 and HA-PKM2: first anti-Flag, elution, then anti-HA; Western blotting; MNX1-AS1 RNA also captured. In general terms: In western blotting, separated proteins are transferred to a membrane and probed.

Experiment [2] concerns the target importin α5 mammalian two-hybrid fusion (pBIND/pACT) (UniProt P52294). The experiment in a line: two-hybrid; mammalian two-hybrid: pBIND (GAL4 DNA-binding domain) and pACT (VP16 activation domain) fusions with pG5luc in HepG2 cells stably expressing sh-ctrl or sh-MNX1-AS1; luciferase after 48 h.
The target in experiment [3] is pyruvate kinase isoform M2 (PKM2), endogenous (human (endogenous in HepG2)) (UniProt P14618). The experiment in a line: co-IP; endogenous proteins, lysates of HepG2 cells bearing sh-ctrl or sh-MNX1-AS1 lentiviruses; immunoprecipitated with antibodies against PKM2 or importin α5; Western blotting.
The target of experiment [4] is importin α5 (KPNA1), endogenous (human (endogenous in HepG2)) (UniProt P52294). Described as above.

On to “HA-PKM2 (from UniProt P14618 1-531) (enzyme)”, for which the binding entry in experiment [1] is “binds”.
For the substance “PKM2 mammalian two-hybrid fusion (pBIND/pACT) (from UniProt P14618 1-531) (enzyme)”, in experiment [2], the binding result was “binds”.
With “importin α5 (KPNA1), endogenous (from UniProt P52294 1-538)”, the binding entry in experiment [3] is “binds”.
As to “pyruvate kinase isoform M2 (PKM2), endogenous (from UniProt P14618 1-531) (enzyme)”, the binding entry in experiment [4] is given as “binds”.
